{"source": "paper PMC7819943", "about": "“Rice protein-binding microarrays: a tool to detect cis-acting elements near promoter regions in rice”", "note": "This is one part of the list."}
{"biological_target": "T1, OsSMF1 (Oryza sativa, UniProt Q6ZLB0 1-436)", "T1 sequence": "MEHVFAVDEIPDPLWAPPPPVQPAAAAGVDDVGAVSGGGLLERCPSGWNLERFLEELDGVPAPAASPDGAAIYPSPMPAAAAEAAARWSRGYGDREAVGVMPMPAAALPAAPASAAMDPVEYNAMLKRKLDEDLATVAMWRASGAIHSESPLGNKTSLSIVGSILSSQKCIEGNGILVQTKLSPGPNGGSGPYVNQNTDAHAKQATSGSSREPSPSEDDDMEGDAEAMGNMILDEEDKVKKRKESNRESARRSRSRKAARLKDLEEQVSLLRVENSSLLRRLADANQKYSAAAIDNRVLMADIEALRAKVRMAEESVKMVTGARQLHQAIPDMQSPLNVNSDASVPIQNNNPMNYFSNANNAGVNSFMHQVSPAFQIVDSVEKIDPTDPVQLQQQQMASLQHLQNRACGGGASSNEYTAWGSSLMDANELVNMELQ", "test": "protein-binding microarray (RPBM); PBS, 2% BSA, 51.3 ng/ul salmon testes DNA, 50 uM zinc acetate, 200 nM TF, 25 C, 1 h; high values mean tight binding", "conditions": "protein: recombinant; tags: N-terminal polyhistidine and DsRed monomer fusion (pET32a); chain copies: 2; label: CyDye5-dUTP incorporated in the synthesized complementary strand; 3' TTTTT single-stranded linker to array surface; dsDNA, one strand shown", "in_short": "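Using Ni–NTA, transcription factors fused N-terminally to polyhistidine and DsRed were purified after expression in E. coli BL21-CodonPlus. These were incubated at 200 nM with a blocked, double-stranded custom Agilent array for 1 h at 25 °C in a buffer containing 50 µM zinc acetate, and the array was washed. The binding signal is per-feature fluorescence intensity (arbitrary units) on an Axon 4000B scanner.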"}
{"sequence": "CTACGTACTGTTTAACTTATATATGTCATTTCATATGGTTCGGAGTCACCTAGTGCAG", "binding signal": "3290 fluorescence intensity (a.u.)"}
{"sequence": "CCGGGTGCACCACGCTGGCGCACCTGGTCTTCTTCCTCCCCGGAGTCACCTAGTGCAG", "binding signal": "4210 fluorescence intensity (a.u.)"}
{"sequence": "GCCCAGATATTTCACCACGTCAGCAATCCGCGCCGAAACGCGGAGTCACCTAGTGCAG", "binding signal": "16600 fluorescence intensity (a.u.)"}
{"sequence": "AGGGCACATTATGAAATTACACCCCTACCTTTCAGCAAAACGGAGTCACCTAGTGCAG", "binding signal": "3300 fluorescence intensity (a.u.)"}
{"sequence": "ATGCACACACATACAACGAAAACCAGAGATCAACAGGTGCCGGAGTCACCTAGTGCAG", "binding signal": "45100 fluorescence intensity (a.u.)"}
{"sequence": "TAGCTTGTATGTGTCAGTTGGCACGTGGTTTTAAGGTGGGCGGAGTCACCTAGTGCAG", "binding signal": "4530 fluorescence intensity (a.u.)"}
{"sequence": "CTCCAGTCAAAGCAAGTGAAGATGTGTCAGTACTCAGTCACGGAGTCACCTAGTGCAG", "binding signal": "3740 fluorescence intensity (a.u.)"}
{"sequence": "GTGCGTGCATGTGCTGCGTCTGGTGTGACGGTGAGAGAGACGGAGTCACCTAGTGCAG", "binding signal": "3750 fluorescence intensity (a.u.)"}
{"sequence": "AACCACGTATGCGCCACGTCATCCAAAACCGCCTTCAAAACGGAGTCACCTAGTGCAG", "binding signal": "14400 fluorescence intensity (a.u.)"}
{"sequence": "AAATTTAAGAGTTTGAGCCATACGAAACGGCCCTGAAGAACGGAGTCACCTAGTGCAG", "binding signal": "24700 fluorescence intensity (a.u.)"}
{"sequence": "ATATAAAATGACGTCAAATATATTCCCTTACTAGATCTTCCGGAGTCACCTAGTGCAG", "binding signal": "10900 fluorescence intensity (a.u.)"}
{"sequence": "TGTGTGTGTGGGATGCAGGAACAGGTCGTATCTGATGAACCGGAGTCACCTAGTGCAG", "binding signal": "3260 fluorescence intensity (a.u.)"}
{"sequence": "AGGACGAATGATCAAACGTGTGCCCAGCGGTCAATGACGTCGGAGTCACCTAGTGCAG", "binding signal": "3760 fluorescence intensity (a.u.)"}
{"sequence": "GGCAGCACCGCAGCAGCCGCCACCCGTGCATCCCTACCCGCGGAGTCACCTAGTGCAG", "binding signal": "3530 fluorescence intensity (a.u.)"}
{"sequence": "GGCCGCCTGCAAATTTCGTTCCGTCTGCCACGTCACTTTCCGGAGTCACCTAGTGCAG", "binding signal": "36800 fluorescence intensity (a.u.)"}
{"sequence": "AATGCTGTTCGAGCTTGAGCTGGAGCAGTAATAGAGCACCCGGAGTCACCTAGTGCAG", "binding signal": "3250 fluorescence intensity (a.u.)"}
{"sequence": "TCCCTCGAGAGGATGTCCTCTCATTGTTTGCATGTCATTTCGGAGTCACCTAGTGCAG", "binding signal": "3220 fluorescence intensity (a.u.)"}
{"sequence": "TCACATGCATGAGCACATGACGTGTGGTGTCACAGAATCTCGGAGTCACCTAGTGCAG", "binding signal": "10700 fluorescence intensity (a.u.)"}
{"sequence": "GCCACCACATTTAGCGCCCGCCGCCACCGCTGCCGCCGCCCGGAGTCACCTAGTGCAG", "binding signal": "3220 fluorescence intensity (a.u.)"}
{"sequence": "CGCGGCGCGCCGGGTCGTTCGTTCGTACAGCACGTACTACCGGAGTCACCTAGTGCAG", "binding signal": "3460 fluorescence intensity (a.u.)"}
{"sequence": "CTCCTCGTCTCCGCTCCTCTCTCCACGTGTTGACCAGGCCCGGAGTCACCTAGTGCAG", "binding signal": "6420 fluorescence intensity (a.u.)"}
{"sequence": "ACGTCTTTAGTCATGTAGCTACCTATATGCAGCCCCTTCGCGGAGTCACCTAGTGCAG", "binding signal": "3390 fluorescence intensity (a.u.)"}
{"sequence": "AGCGCCGAAGTGGTTGGTGCTGAGGTAGCTACCACGTTAGCGGAGTCACCTAGTGCAG", "binding signal": "6040 fluorescence intensity (a.u.)"}
{"sequence": "AGTTGTATCACTGATATATGGATCTTAGATGGGGCCTACACGGAGTCACCTAGTGCAG", "binding signal": "5530 fluorescence intensity (a.u.)"}
{"sequence": "GCCACCGCCAGTCGCCGCGCGCCTTCGGTTCTCCCCATCGCGGAGTCACCTAGTGCAG", "binding signal": "3430 fluorescence intensity (a.u.)"}
{"sequence": "AACCCTAAGACTAGAGGCGGGCTGGAGCGTGGAGGCGGGACGGAGTCACCTAGTGCAG", "binding signal": "3240 fluorescence intensity (a.u.)"}
{"sequence": "AGTGAGCTATCTGAATTCTGGATAGGGTTACACAGGCTACCGGAGTCACCTAGTGCAG", "binding signal": "28500 fluorescence intensity (a.u.)"}
{"sequence": "TGTGTTCTGCAATGCATAATTGCACCAGTTCTAGTACCTGCGGAGTCACCTAGTGCAG", "binding signal": "45300 fluorescence intensity (a.u.)"}
{"sequence": "GCCGAGAGGGCAAAGACCTCCTCGGCCGCACCACCCACAACGGAGTCACCTAGTGCAG", "binding signal": "32000 fluorescence intensity (a.u.)"}
{"sequence": "CGCTGGTGAAGTGGTGATGCGCCTAATCGTTTTCTTCGCGCGGAGTCACCTAGTGCAG", "binding signal": "3260 fluorescence intensity (a.u.)"}
{"sequence": "GGCTCCGTCTTATCCTAACAACGCCAAGGGGCCACGTATGCGGAGTCACCTAGTGCAG", "binding signal": "7210 fluorescence intensity (a.u.)"}
{"sequence": "TTGGCAAAGAGGGACTGACGAGAGAGTAGCAATGAGAAGGCGGAGTCACCTAGTGCAG", "binding signal": "25500 fluorescence intensity (a.u.)"}
{"sequence": "AATGTTTCAACTAATTTCAAGCAACTATGACTGTGTTTAGCGGAGTCACCTAGTGCAG", "binding signal": "4410 fluorescence intensity (a.u.)"}
{"sequence": "CTTGTGATTTGTTCATGACACAACTTGACACGGTTTGGGTCGGAGTCACCTAGTGCAG", "binding signal": "3740 fluorescence intensity (a.u.)"}
{"sequence": "CTATAATAATTTATGATGCCCACGTATATAGTGTATTTGGCGGAGTCACCTAGTGCAG", "binding signal": "5690 fluorescence intensity (a.u.)"}
{"sequence": "CAATCCGTTGATCGGGGTCGTAGTCCATCGACAGAAATTACGGAGTCACCTAGTGCAG", "binding signal": "41800 fluorescence intensity (a.u.)"}
{"sequence": "ATGTGGAGAGGGGAGGGGAATAAGAGGCTGACGTGTGGGCCGGAGTCACCTAGTGCAG", "binding signal": "19200 fluorescence intensity (a.u.)"}
{"sequence": "CACAGGTTTTGACCTGTTCCAGTGTCACTGACTTGTGGGCCGGAGTCACCTAGTGCAG", "binding signal": "3690 fluorescence intensity (a.u.)"}
{"sequence": "CGGGATCGGCCTCCGAGGGCTCCGACGCGTCGGTAGCGGCCGGAGTCACCTAGTGCAG", "binding signal": "3540 fluorescence intensity (a.u.)"}
{"sequence": "ATCAACGGGACAGTGATCCACGTACGGGAAAACCACCCATCGGAGTCACCTAGTGCAG", "binding signal": "3630 fluorescence intensity (a.u.)"}
{"sequence": "CTTGGCTGAGTAGAAAAGCAGAACATCTTCTTGTTCCGTGCGGAGTCACCTAGTGCAG", "binding signal": "3170 fluorescence intensity (a.u.)"}
{"sequence": "CCCACGTGGGTCCCACGCTGACTCAGCCGCCACGTAGATCCGGAGTCACCTAGTGCAG", "binding signal": "25400 fluorescence intensity (a.u.)"}
